Measured values: the supplement of paper PMC10849652
The other results are listed elsewhere or left out. Residues, ends and D or L forms follow the SMILES beside them. *: point of attachment. Cbz = O=C(OCc1ccccc1)*

Amino acid sequences for entries named in this document (tags omitted). A change or cut given only in a name is not applied to a line headed by its entry.
UniProt Q0VDI3: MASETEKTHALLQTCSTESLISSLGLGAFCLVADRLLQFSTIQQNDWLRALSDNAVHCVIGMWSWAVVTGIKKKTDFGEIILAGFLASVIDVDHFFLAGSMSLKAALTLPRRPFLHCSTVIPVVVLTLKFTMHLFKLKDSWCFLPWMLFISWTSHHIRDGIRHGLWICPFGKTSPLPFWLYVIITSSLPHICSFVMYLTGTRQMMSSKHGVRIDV
UniProt Q8NE00: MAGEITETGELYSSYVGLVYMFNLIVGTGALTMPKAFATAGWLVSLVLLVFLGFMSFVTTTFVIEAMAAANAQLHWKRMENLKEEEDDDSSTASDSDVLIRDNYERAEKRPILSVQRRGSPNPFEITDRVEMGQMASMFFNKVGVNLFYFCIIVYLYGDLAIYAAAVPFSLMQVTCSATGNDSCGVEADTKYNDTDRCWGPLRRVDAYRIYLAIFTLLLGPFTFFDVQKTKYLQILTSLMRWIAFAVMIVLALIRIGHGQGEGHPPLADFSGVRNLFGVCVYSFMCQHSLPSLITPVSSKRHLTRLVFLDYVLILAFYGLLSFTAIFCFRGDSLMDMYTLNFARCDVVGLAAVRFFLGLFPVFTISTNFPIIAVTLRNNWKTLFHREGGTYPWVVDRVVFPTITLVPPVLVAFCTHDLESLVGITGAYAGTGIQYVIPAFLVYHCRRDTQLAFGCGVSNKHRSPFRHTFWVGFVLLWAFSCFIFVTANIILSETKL
UniProt O14763, whole entry, looked up: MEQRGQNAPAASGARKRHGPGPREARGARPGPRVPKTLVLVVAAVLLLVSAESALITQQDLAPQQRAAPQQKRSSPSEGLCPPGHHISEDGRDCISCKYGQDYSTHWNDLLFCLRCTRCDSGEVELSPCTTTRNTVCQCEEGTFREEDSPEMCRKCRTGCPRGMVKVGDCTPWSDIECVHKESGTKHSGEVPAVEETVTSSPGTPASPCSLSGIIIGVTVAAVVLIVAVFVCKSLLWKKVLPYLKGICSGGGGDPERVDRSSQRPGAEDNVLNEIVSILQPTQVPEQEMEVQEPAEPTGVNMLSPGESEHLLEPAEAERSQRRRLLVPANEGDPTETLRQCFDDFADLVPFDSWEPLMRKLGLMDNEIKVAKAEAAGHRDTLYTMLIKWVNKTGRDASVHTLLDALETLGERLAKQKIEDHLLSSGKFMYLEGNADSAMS
UniProt O94886: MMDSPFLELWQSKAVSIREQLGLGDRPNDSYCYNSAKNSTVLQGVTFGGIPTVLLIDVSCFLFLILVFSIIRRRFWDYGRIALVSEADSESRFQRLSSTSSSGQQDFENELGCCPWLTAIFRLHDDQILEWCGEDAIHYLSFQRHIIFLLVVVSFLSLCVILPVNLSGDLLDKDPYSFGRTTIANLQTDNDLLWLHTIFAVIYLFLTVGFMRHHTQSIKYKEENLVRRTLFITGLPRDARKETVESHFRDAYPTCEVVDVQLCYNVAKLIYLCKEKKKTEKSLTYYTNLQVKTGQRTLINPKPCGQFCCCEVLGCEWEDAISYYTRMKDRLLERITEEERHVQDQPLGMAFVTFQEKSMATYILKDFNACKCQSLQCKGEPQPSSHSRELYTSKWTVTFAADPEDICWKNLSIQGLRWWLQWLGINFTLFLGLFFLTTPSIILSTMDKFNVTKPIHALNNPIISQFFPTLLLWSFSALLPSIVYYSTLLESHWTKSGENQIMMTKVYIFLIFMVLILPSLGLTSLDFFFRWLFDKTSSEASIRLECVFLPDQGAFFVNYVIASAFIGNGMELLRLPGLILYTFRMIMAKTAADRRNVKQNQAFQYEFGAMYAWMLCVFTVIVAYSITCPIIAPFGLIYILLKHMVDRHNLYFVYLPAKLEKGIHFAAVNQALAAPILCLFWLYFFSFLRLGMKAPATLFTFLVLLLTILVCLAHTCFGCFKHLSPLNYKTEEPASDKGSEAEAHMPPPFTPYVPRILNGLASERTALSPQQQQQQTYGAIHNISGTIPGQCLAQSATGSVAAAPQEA
UniProt Q9NVA4: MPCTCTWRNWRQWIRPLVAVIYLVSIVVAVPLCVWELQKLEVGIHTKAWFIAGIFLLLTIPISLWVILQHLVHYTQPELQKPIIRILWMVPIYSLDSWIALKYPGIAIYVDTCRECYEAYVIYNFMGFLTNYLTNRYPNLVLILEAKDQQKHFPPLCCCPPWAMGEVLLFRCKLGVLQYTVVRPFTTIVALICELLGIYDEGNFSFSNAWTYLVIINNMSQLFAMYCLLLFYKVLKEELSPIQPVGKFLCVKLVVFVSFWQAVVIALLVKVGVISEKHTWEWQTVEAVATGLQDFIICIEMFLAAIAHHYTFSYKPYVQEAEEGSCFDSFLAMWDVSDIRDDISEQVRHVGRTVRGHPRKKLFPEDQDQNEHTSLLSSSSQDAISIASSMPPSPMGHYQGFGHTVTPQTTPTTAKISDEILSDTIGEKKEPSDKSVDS
UniProt Q96IK0: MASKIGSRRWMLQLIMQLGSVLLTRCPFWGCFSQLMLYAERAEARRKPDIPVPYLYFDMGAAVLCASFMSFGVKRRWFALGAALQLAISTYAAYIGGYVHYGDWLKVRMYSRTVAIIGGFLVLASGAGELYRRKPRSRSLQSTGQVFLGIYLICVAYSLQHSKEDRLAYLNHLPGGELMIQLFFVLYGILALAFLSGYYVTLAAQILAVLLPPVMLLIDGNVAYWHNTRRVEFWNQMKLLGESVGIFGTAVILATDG
UniProt Q86WV6: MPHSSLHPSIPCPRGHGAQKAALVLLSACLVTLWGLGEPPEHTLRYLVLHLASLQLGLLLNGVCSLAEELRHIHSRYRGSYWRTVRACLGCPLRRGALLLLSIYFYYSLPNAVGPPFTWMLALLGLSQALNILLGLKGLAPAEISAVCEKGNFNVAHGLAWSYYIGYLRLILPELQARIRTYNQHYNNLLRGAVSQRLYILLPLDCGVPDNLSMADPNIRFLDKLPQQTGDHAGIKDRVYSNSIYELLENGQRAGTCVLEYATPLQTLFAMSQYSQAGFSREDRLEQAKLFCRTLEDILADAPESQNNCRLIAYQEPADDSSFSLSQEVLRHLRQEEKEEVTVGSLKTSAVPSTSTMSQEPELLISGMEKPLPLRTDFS
UniProt Q5U3C3: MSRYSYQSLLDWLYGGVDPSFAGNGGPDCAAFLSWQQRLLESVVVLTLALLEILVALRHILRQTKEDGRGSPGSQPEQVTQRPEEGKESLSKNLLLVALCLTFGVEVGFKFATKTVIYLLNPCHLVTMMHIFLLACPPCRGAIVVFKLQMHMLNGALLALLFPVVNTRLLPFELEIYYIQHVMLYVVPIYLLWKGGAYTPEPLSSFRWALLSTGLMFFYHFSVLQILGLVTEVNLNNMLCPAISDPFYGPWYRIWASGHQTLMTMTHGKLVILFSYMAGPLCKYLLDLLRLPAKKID
UniProt Q5SWH9: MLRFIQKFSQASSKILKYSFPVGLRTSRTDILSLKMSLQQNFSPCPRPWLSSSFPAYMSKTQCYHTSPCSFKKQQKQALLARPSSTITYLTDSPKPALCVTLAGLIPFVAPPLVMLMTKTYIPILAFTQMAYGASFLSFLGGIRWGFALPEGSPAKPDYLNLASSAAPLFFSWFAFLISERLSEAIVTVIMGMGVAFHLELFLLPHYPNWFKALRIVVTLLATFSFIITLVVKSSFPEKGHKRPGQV
UniProt Q6NUQ4: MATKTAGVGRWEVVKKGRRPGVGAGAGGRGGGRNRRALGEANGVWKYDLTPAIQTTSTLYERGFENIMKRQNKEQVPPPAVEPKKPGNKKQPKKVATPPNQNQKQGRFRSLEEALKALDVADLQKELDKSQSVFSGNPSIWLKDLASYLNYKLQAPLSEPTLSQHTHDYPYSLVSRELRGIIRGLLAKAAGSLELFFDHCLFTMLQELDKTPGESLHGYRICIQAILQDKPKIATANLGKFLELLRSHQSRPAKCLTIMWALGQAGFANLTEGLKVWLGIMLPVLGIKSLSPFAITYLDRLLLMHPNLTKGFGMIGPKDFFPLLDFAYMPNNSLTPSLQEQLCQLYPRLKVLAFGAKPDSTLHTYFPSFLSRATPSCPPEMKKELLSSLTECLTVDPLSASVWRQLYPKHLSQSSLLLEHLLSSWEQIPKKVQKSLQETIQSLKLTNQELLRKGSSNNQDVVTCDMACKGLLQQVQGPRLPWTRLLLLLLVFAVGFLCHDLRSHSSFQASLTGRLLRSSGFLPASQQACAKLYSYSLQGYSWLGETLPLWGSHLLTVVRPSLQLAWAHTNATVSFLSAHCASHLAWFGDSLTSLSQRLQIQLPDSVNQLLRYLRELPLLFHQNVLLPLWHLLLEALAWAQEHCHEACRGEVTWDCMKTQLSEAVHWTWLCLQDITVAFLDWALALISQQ
UniProt P55061, whole entry, looked up: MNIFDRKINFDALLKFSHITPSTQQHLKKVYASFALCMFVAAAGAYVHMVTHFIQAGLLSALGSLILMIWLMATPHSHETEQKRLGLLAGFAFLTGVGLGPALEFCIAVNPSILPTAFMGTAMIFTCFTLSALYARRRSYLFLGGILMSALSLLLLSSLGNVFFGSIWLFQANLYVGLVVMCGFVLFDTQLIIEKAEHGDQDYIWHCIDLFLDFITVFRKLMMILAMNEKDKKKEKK
UniProt Q9P0S9: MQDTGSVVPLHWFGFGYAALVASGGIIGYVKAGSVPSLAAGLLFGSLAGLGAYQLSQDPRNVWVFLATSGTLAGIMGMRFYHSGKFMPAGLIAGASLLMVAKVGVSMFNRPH
UniProt Q9P0T7: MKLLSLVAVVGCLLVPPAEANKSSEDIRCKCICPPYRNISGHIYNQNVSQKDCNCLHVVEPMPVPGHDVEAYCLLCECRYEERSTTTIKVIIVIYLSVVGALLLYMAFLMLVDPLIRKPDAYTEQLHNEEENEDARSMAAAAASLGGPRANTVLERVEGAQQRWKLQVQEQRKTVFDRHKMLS
UniProt Q8NCS4: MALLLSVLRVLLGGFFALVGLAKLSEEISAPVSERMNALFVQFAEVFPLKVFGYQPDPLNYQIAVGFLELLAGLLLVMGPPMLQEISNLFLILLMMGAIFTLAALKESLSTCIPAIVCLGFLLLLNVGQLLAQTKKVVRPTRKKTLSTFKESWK
UniProt Q8TDI8: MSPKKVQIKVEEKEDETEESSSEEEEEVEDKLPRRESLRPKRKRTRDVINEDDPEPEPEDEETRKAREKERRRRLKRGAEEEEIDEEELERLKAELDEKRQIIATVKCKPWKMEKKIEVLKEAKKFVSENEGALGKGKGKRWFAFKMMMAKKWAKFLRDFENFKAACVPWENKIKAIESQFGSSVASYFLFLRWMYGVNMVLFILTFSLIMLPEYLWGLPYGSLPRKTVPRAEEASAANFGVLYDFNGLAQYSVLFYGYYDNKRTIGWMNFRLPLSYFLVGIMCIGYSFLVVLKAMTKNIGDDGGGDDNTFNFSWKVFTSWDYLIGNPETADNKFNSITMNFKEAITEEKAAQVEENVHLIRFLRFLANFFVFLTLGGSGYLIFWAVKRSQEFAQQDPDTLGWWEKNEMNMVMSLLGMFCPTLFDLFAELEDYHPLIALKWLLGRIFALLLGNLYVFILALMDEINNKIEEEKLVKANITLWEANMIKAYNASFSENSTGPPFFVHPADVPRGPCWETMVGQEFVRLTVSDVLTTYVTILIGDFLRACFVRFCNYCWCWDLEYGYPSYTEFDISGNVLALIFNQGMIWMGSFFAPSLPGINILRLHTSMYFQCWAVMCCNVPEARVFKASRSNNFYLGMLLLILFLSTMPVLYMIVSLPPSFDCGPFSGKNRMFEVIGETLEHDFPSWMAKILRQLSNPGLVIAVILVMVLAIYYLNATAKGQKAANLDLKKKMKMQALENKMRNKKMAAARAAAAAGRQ
UniProt Q99805: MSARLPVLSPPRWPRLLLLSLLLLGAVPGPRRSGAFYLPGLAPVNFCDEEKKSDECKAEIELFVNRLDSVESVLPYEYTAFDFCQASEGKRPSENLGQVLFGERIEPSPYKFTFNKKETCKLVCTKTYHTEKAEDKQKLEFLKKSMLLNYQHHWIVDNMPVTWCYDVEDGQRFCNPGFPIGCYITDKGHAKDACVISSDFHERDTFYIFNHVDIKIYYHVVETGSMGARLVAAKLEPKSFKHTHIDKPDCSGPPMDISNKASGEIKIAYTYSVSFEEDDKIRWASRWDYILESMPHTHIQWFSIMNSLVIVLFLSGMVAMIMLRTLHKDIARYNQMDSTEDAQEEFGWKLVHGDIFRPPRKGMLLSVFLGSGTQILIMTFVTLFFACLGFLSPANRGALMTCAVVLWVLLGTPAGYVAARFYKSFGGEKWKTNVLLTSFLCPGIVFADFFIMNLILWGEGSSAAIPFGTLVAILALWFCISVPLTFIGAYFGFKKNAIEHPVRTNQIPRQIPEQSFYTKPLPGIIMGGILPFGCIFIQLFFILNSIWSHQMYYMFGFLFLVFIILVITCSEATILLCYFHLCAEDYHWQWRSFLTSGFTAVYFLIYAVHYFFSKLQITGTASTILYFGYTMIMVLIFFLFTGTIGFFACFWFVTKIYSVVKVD

How the values were obtained:
Experiment in all cases: log2 fold change, soluble protein after heating vs DMSO (PISA); higher = thermal stabilisation; K562 cells, 10 uM, 30 min; active = over 0.2 and 3.5 SD of the protein, either way, in both replicates (recomputed)
[1] = compound: C1COCCN1CCN2C3=CC=CC=C3N=C2NC(=O)C4=CC(=CC=C4)[N+](=O)[O-] [IRAK-1-4 Inhibitor I]
Procedure, shortened: (§1)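 K562 cells at 2×10^6 cells/mL were given 10 μM compound for 30 min. Aliquots then went through 3 min of heating across 48°C-58°C, were pooled, and were extracted in PBS with 0.5% NP-40 at 4°C, and the supernatant after 21,000xg for 90 min was quantified by TMTpro 16plex LC-MS/MS with channel sums equalised. Thermal stability relative to control samples, from duplicates, is given as log2 fold change.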

[2] = compound: C=CC(=O)N1CCC[C@@H](n2nc(-c3ccc(Oc4ccccc4)cc3)c3c(N)ncnc32)C1 [ibrutinib]
Procedure, shortened: as §1

[3] = compound: CC(=O)c1cnc2ccc(-c3cc(Cl)c(O)c(Cl)c3)nc2c1N[C@H]1CC[C@H](CN(C)C)CC1
Procedure, shortened: as §1

[4] = compound: CC(C)(C)Cn1c(N)nc2ccc(-c3[nH]c(C(C)(C)C)nc3-c3ccc(F)cc3)nc21 [ralimetinib]
Procedure, shortened: as §1

[5] = compound: CC(C)C1=C2N=C(C=C(N2N=C1)NCC3=CC=CC=C3)NCCCCCCN
Procedure, shortened: as §1

[6] = compound: CC(C)C[C@@H](C=O)NC(=O)[C@H](CC(C)C)NC(=O)[C@H](CC(C)C)NC(=O)OCc1ccccc1
Procedure, shortened: as §1

[7] = compound: CC(C)N(C[C@H]1O[C@@H](n2cnc3c(N)ncnc32)[C@H](O)[C@@H]1O)[C@H]1C[C@@H](CCc2nc3cc(C(C)(C)C)ccc3[nH]2)C1 [pinometostat]
Procedure, shortened: as §1

[8] = compound: CC1=C(C2=C(C=C1)C(=O)C3=CC=CC=C3N2CCCN)C
Procedure, shortened: as §1

[9] = compound: CC1=C(C=C(C=C1)NC(=O)C2=CC(=CC=C2)N(C)C)NC(=O)C3=CC=C(C=C3)O
Procedure, shortened: as §1

[10] = compound: CC1=CC=C(C=C1)SC2=C3C=C(SC3=CN=C2)C(=O)N
Procedure, shortened: as §1

[11] = compound: CC1=NC(=CC=C1)C2=C(N=C(N2)C(C)(C)C)C3=CC4=NC=CN=C4C=C3
Procedure, shortened: as §1

[12] = compound: CCCS(=O)(=O)Nc1ccc(F)c(C(=O)c2c[nH]c3ncc(-c4ccc(Cl)cc4)cc23)c1F [vemurafenib]
Procedure, shortened: as §1

[13] = compound: CCCS(=O)(=O)Nc1ccc(F)c(C(=O)c2c[nH]c3ncc(Cl)cc23)c1F
Procedure, shortened: as §1

[14] = compound: CCN(CC)Cc1ccc2cc(COC(=O)Nc3ccc(C(=O)NO)cc3)ccc2c1 [givinostat]
Procedure, shortened: as §1

[15] = compound: CCN(CCCOc1ccc2c(Nc3cc(CC(=O)Nc4cccc(F)c4)[nH]n3)ncnc2c1)CCOP(=O)(O)O [barasertib]
Procedure, shortened: as §1

[16] = compound: CC(C)(O)CC(=O)NCCn1ccc2ncnc(Nc3ccc(Oc4cccc(C(F)(F)F)c4)c(Cl)c3)c21
Procedure, shortened: as §1

[17] = compound: CCCCN(Cc1ccc(C(=O)NO)cc1)C(=O)Nc1ccccc1 [Nexturastat A]
Procedure, shortened: as §1

[18] = compound: CCCc1cc(C)[nH]c(=O)c1CNC(=O)c1cc(-c2ccnc(N3CCN(C)CC3)c2)cc2c1cnn2C(C)C
Procedure, shortened: as §1

[19] = compound: CC1=C(C(CC(=O)N1)C2=CC=C(C=C2)C(F)(F)F)C(=O)NC3=C(C=C4C(=C3)C=NN4)F
Procedure, shortened: as §1

[20] = compound: CC1=C(C=C(C=C1)NC(=O)C2=CC(=CC=C2)C(C)(C)C#N)NC3=CC4=C(C=C3)N=CN(C4=O)C
Procedure, shortened: as §1

Measured: log2 fold change

TMEM267 (UniProt Q0VDI3)
inactive: [1] -0.082 | [2] -0.073 | [3] 0.102 | [4] -0.091 | [5] -0.178 | [6] 0.009 | [7] -0.058 | [8] 0.074 | [9] 0.034 | [10] -0.078 | [11] 0.011 | [12] -0.28 | [13] -0.19 | [14] 0.044 | [15] 0.117

TMEM104 (UniProt Q8NE00)
inactive: [1] -0.039 | [3] 0.038 | [4] -0.09 | [16] 0.009 | [6] 0.082 | [7] -0.106 | [9] 0.058 | [10] -0.015 | [11] -0.039 | [17] -0.046 | [13] -0.173 | [18] -0.126 | [14] -0.012
active: [5] -0.473

TNFRSF10B (UniProt O14763)
inactive: [1] 0.022 | [2] -0.056 | [3] -0.121 | [16] -0.075 | [5] 0.056 | [7] 0.011 | [19] 0.057 | [8] -0.061 | [20] 0.015 | [10] -0.039 | [11] -0.019 | [17] -0.042 | [12] 0.039 | [13] -0.015 | [18] 0.063 | [14] -0.012 | [15] -0.06

TM7SF3 (UniProt Q9NS93)
active: [5] -0.485
inactive: [1] -0.06 | [2] 0.014 | [3] 0.055 | [4] -0.068 | [6] 0.01 | [7] -0.036 | [8] 0.057 | [20] -0.033 | [9] -0.054 | [10] 0.005 | [11] 0.017 | [13] -0.019 | [18] -0.027 | [14] 0.06 | [15] 0.045

Reprinted at random: two records from the list, in no set order.
TMEM104 (UniProt Q8NE00)
inactive: [1] -0.039 | [3] 0.038 | [4] -0.09 | [16] 0.009 | [6] 0.082 | [7] -0.106 | [9] 0.058 | [10] -0.015 | [11] -0.039 | [17] -0.046 | [13] -0.173 | [18] -0.126 | [14] -0.012
active: [5] -0.473

TM7SF3 (UniProt Q9NS93)
active: [5] -0.485
inactive: [1] -0.06 | [2] 0.014 | [3] 0.055 | [4] -0.068 | [6] 0.01 | [7] -0.036 | [8] 0.057 | [20] -0.033 | [9] -0.054 | [10] 0.005 | [11] 0.017 | [13] -0.019 | [18] -0.027 | [14] 0.06 | [15] 0.045

Going on with the list:

TMEM63A (UniProt O94886)
inactive: [1] -0.048 | [2] 0.072 | [3] 0.093 | [16] -0.039 | [5] 0.016 | [7] -0.021 | [19] -0.027 | [8] 0.039 | [20] 0.066 | [10] -0.082 | [11] 0.023 | [17] 0.002 | [12] 0 | [13] -0.023 | [18] 0.2 | [14] 0.011 | [15] 0.075

TMC6 (UniProt Q7Z403)
inactive: [1] -0.194 | [3] -0.117 | [4] 0.06 | [5] -0.073 | [6] 0.355 | [7] 0.096 | [19] 0.088 | [8] 0.004 | [9] -0.116 | [10] -0.319 | [11] -0.358 | [12] 0.039 | [13] 0.068 | [18] -0.001 | [14] 0.064

TMEM184C (UniProt Q9NVA4)
inactive: [1] 0.105 | [2] -0.037 | [3] 0.042 | [4] -0.033 | [16] 0.088 | [6] 0.042 | [7] -0.021 | [8] -0.005 | [20] -0.07 | [9] 0.028 | [11] 0.028 | [17] -0.02 | [12] 0.024 | [18] -0.028 | [15] 0.055

TMEM101 (UniProt Q96IK0)
inactive: [1] -0.001 | [2] 0.011 | [3] -0.006 | [4] -0.054 | [5] -0.219 | [6] 0.002 | [7] 0.031 | [19] 0.008 | [8] -0.067 | [9] 0.013 | [10] 0.068 | [11] 0.049 | [12] -0.004 | [13] 0.098 | [18] 0.013 | [14] 0.013 | [15] 0.05

TMEM173 (UniProt Q86WV6)
inactive: [1] 0.018 | [2] -0.105 | [3] 0.009 | [4] 0.067 | [16] -0.047 | [5] -0.006 | [6] 0.005 | [7] 0.012 | [8] 0.088 | [20] -0.037 | [9] -0.01 | [10] -0.043 | [11] -0.008 | [17] -0.212 | [12] 0.056 | [13] -0.043 | [18] -0.008 | [14] -0.076 | [15] 0.055

TMEM164 (UniProt Q5U3C3)
inactive: [1] 0.057 | [2] -0.036 | [3] -0.088 | [16] -0.025 | [5] -0.309 | [7] -0.073 | [8] 0.066 | [20] 0.288 | [10] 0.05 | [11] -0.047 | [17] -0.142 | [12] -0.083 | [13] 0.078 | [18] -0.305 | [14] -0.038 | [15] -0.095

TMEM69 (UniProt Q5SWH9)
inactive: [1] 0.037 | [2] 0.03 | [3] 0.033 | [4] -0.063 | [5] 0.112 | [6] 0.019 | [7] 0.02 | [19] 0.089 | [8] 0.053 | [9] 0.026 | [10] -0.006 | [11] 0.036 | [13] 0.01 | [18] -0.147 | [14] -0.018 | [15] -0.092

TMEM214 (UniProt Q6NUQ4)
inactive: [1] -0.076 | [2] -0.063 | [3] 0.028 | [4] -0.03 | [16] 0.019 | [5] 0.066 | [6] 0.044 | [7] 0.073 | [8] 0.074 | [20] -0.038 | [9] -0.054 | [10] 0.023 | [11] 0.007 | [17] 0.062 | [12] 0.046 | [13] 0.065 | [18] 0 | [14] 0.021 | [15] -0.03

TMBIM6 isoform 2 (UniProt P55061)
inactive: [1] 0.023 | [2] 0.001 | [3] 0.004 | [4] -0.208 | [6] 0.135 | [7] 0.017 | [8] -0.075 | [20] -0.05 | [9] 0.045 | [10] 0.04 | [11] -0.016 | [17] -0.005 | [12] -0.121 | [13] 0.048 | [18] 0.619 | [14] 0.072 | [15] 0.019
active: [16] -0.437 | [5] -0.521

TMEM14C (UniProt Q9P0S9)
inactive: [1] 0.041 | [2] 0.102 | [3] -0.105 | [4] -0.093 | [5] -0.003 | [6] -0.008 | [7] 0.088 | [19] -0.257 | [8] 0.08 | [20] -0.021 | [9] 0.098 | [10] -0.017 | [11] 0.072 | [12] -0.041 | [13] 0.027 | [18] -0.19 | [14] 0.043 | [15] -0.058

TMEM9 (UniProt Q9P0T7)
inactive: [1] 0.076 | [2] 0.039 | [3] 0.012 | [4] -0.003 | [16] -0.07 | [5] -0.211 | [6] 0.064 | [7] -0.042 | [8] -0.013 | [20] -0.024 | [9] -0.041 | [10] 0.057 | [11] -0.008 | [17] 0 | [12] 0.028 | [13] 0.091 | [18] -0.062 | [14] 0.039 | [15] 0.019

TMEM167B (UniProt Q9NRX6)
inactive: [1] 0.038 | [2] 0.018 | [4] -0.05 | [5] 0.049 | [6] 0.035 | [7] 0.05 | [19] -0.005 | [8] -0.069 | [20] -0.008 | [9] -0.001 | [10] -0.07 | [11] -0.043 | [12] -0.095 | [13] -0.019 | [18] -0.153 | [14] 0.026 | [15] -0.056

TMEM35B (UniProt Q8NCS4)
inactive: [1] -0.025 | [2] -0.085 | [5] -0.004 | [7] 0.274 | [19] -0.013 | [8] 0.064 | [11] 0.011 | [12] 0.167 | [18] -0.105 | [14] 0.024 | [15] 0.049

TMC1 (UniProt Q8TDI8)
inactive: [1] -0.086 | [2] -0.099 | [3] -0.107 | [16] 0.016 | [5] -0.204 | [7] -0.011 | [19] -0.005 | [8] -0.027 | [20] 0.146 | [10] 0.032 | [11] 0.048 | [17] -0.192 | [12] -0.014 | [13] -0.054 | [18] -0.514 | [14] -0.049 | [15] 0.076

TM9SF2 (UniProt Q99805)
active: [5] -0.436
inactive: [1] 0.06 | [2] 0.01 | [3] -0.04 | [4] -0.049 | [16] 0.021 | [6] -0.012 | [7] -0.003 | [8] 0.027 | [20] 0.056 | [9] -0.009 | [10] -0.005 | [11] -0.001 | [17] -0.039 | [12] -0.03 | [13] 0.018 | [18] -0.004 | [14] -0.019 | [15] 0.035
